Taken from: PubChem BioAssay AID1259308 (NCATS, 2017)

- Screen: 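Genes whose loss raises luciferase production in HEK293 cells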 (primary screen)
- Cells: human HEK293 embryonic kidney cells stably expressing firefly luciferase (HEK-CMV-Luc2-Hygro)
- Reagent: single siRNA against human genes, 0.8 pmol siRNA per well
- Duration: 72 h
- Measured: 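Reporter luminescence and viable-cell signal on separate replicate plates, given as percent of non-targeting control and median/MAD z-scores, plus per-cell luciferase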
- Reading the numbers: total luciferase, z-score and total luciferase, % of control: higher = more reporter protein produced; luciferase per cell, z-score: higher = more reporter output per viable cell; viable cells, % of control: higher = more viable cells
- Call rule: 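Active when the median/MAD z-score for overall luciferase is greater than 3; a gene was taken forward for validation with new siRNAs if at least two of its three siRNAs passed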
- Meaning of the calls: active = raised luciferase; inactive = no rise
In all, the deposit lists about 59,000 reagents; below is an unselected part. About 1,510 of all reagents (2.6%) were called active. 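Calls use total luciferase alone and ignore viability, so some active siRNAs may act by altering cell number.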 The numbers tell different reagents against one gene apart.

gene symbol	reagent no.	total luciferase, z-score	total luciferase, % of control	luciferase per cell, z-score	viable cells, % of control	call
VAV1	1	4.24	166	3.15	81.2	active
VAV1	2	0.512	92.1	0.118	99.7	inactive
VAV1	3	2.68	135	2.18	85	inactive
DRC10	1	0.352	88.9	-0.0144	99.7	inactive
DRC10	2	0.38	89.4	0.462	88.5	inactive
DRC10	3	-0.444	73.1	0.0795	79.9	inactive
ABCC3	1	-0.669	68.6	-1.6	117	inactive
ABCC3	2	-1.43	53.4	-1.06	78.8	inactive
ABCC3	3	-0.0304	81.3	-0.0142	91.2	inactive
MYOG	1	1.73	116	1.19	95	inactive
MYOG	2	0.779	97.4	1.07	82.1	inactive
MYOG	3	-0.128	79.3	0.138	85.5	inactive
POU6F2	1	-0.412	73.7	-0.435	92.3	inactive
POU6F2	2	-1.01	61.8	-0.603	81	inactive
POU6F2	3	2.24	127	1.82	87.6	inactive
CEACAM7	1	-1.71	47.9	-1.38	77	inactive
CEACAM7	2	-1.01	61.9	-0.584	80.6	inactive
CEACAM7	3	1.49	112	1.02	95.2	inactive
BEND4	1	-0.829	65.4	-0.882	92.2	inactive
BEND4	2	0.844	98.7	0.738	90.8	inactive
BEND4	3	0.951	101	0.278	105	inactive

Next part (7 carried over from the part before).
gene symbol	reagent no.	total luciferase, z-score	total luciferase, % of control	luciferase per cell, z-score	viable cells, % of control	call
POU6F2	3	2.24	127	1.82	87.6	inactive
CEACAM7	1	-1.71	47.9	-1.38	77	inactive
CEACAM7	2	-1.01	61.9	-0.584	80.6	inactive
CEACAM7	3	1.49	112	1.02	95.2	inactive
BEND4	1	-0.829	65.4	-0.882	92.2	inactive
BEND4	2	0.844	98.7	0.738	90.8	inactive
BEND4	3	0.951	101	0.278	105	inactive
KRTAP4-12	1	1.42	110	1.31	87.1	inactive
KRTAP4-12	2	-0.613	69.7	-0.93	99.5	inactive
KRTAP4-12	3	-0.436	73.2	-0.96	105	inactive
DEFA1	1	0.114	84.1	0.85	75.2	inactive
DEFA1	2	0.139	84.7	2.21	52.9	inactive
DEFA1	3	-0.496	72	0.586	69	inactive
SSR3	1	0.801	97.8	0.274	102	inactive
SSR3	2	0.0569	83	0.458	82.2	inactive
SSR3	3	2.36	129	1.41	99.4	inactive
CUX2	1	0.406	90	1.97	59.9	inactive
CUX2	2	-0.465	72.6	-0.126	83.9	inactive
CUX2	3	-0.121	79.5	-0.311	96.4	inactive
LINC01776	1	0.303	87.9	-0.21	104	inactive
LINC01776	2	-0.636	69.2	0.301	71.5	inactive
LINC01776	3	0.505	91.9	0.456	91.1	inactive
HMGB3P27	1	0.415	90.1	0.434	89.8	inactive
HMGB3P27	2	2.2	126	2.21	78.6	inactive
HMGB3P27	3	-0.188	78.1	1.46	59.4	inactive
GAB1	1	1.19	106	0.836	94.7	inactive
GAB1	2	-0.1	79.9	-0.585	104	inactive
GAB1	3	1.55	113	0.693	105	inactive
AASDH	1	0.079	83.5	-0.405	104	inactive
AASDH	2	-0.387	74.2	-0.671	98.9	inactive
AASDH	3	0.385	89.5	0.125	96.8	inactive
RPL21P7	1	-2.68	28.5	-2.1	55.4	inactive
RPL21P7	2	-0.724	67.5	-0.912	95.9	inactive
RPL21P7	3	0.327	88.4	1.04	75.1	inactive
ERC2	1	-0.35	74.9	0.159	80.3	inactive
ERC2	2	0.967	101	1.35	79.2	inactive
ERC2	3	3.71	156	2.88	81.5	active
ZNF623	1	-0.461	72.7	0.312	74.8	inactive
ZNF623	2	2.2	126	0.861	112	inactive
ZNF623	3	0.831	98.4	0.494	96.6	inactive
TMEM63B	1	-0.124	79.4	0.481	78.2	inactive
TMEM63B	2	1.2	106	0.432	105	inactive
TMEM63B	3	-0.439	73.2	-0.561	94.7	inactive
